In patent publication US20020054941A1, “Methods and compositions to enhance tenderness and value of meat” (The Board of Regents of the University of Nebraska, priority 2000, published 2002):
Marks after values point to notes of the source that are not given here.

Legend:
[1] = system: triceps brachii beef muscles; test: NAD and NADH content, pre-rigor injection of whole muscle; conditions: for NAD, 0 h / NADH, 0 h: 0 h (before injection); for NAD, 24 h / NADH, 24 h / NAD, 72 h / NADH, 72 h: 200 mM, calcium chloride 300 mM
[2] = system: triceps brachii beef muscles; test: Oxidation-reduction potential, pre-rigor injection of whole muscle; conditions: 200 mM, calcium chloride 300 mM
[3] = system: supraspinatus beef muscles; test: as above; conditions: for Redox potential, 0 h: 0 h (before injection); for Redox potential, 24 h / Redox potential, 72 h: 200 mM, calcium chloride 300 mM
[4] = system: supraspinatus beef muscles; test: NAD and NADH content, pre-rigor injection of whole muscle; conditions: for NAD, 0 h / NADH, 0 h: 0 h (before injection); for NAD, 24 h / NADH, 24 h / NAD, 72 h / NADH, 72 h: 200 mM, calcium chloride 300 mM
[5] = system: triceps brachii beef muscles; test: R-value, pre-rigor injection of whole muscle; conditions: 200 mM, calcium chloride 300 mM
[6] = system: supraspinatus beef muscles; test: Objective color, pre-rigor injection of whole muscle; conditions: for L*value, 0 h / a*value, 0 h / b*value, 0 h: 0 h (before injection); for L*value, 0 h / L*value, 24 h / L*value, 72 h: lightness; for a*value, 0 h / a*value, 24 h / a*value, 72 h: redness; for b*value, 0 h / b*value, 24 h / b*value, 72 h: yellowness; for L*value, 24 h / a*value, 24 h / b*value, 24 h / L*value, 72 h / a*value, 72 h / b*value, 72 h: 200 mM, calcium chloride 300 mM
[7] = system: triceps brachii beef muscles; test: Sarcomere length, pre-rigor injection of whole muscle; conditions: 72 hours after injection; 200 mM, calcium chloride 300 mM
[8] = system: semimembranosus beef muscles; test: Water holding capacity, pre-rigor injection of whole muscle; conditions: 200 mM, calcium chloride 300 mM
[9] = system: semimembranosus beef muscles; test: Oxidation-reduction potential, pre-rigor injection of whole muscle; conditions: for Redox potential, 0 h: 0 h (before injection); for Redox potential, 24 h / Redox potential, 72 h: 200 mM, calcium chloride 300 mM
[10] = system: supraspinatus beef muscles; test: R-value, pre-rigor injection of whole muscle; conditions: for R-value, 0 h: 0 h (before injection), ratio of hypoxantine to nucleotides; for R-value, 24 h / R-value, 72 h: 200 mM, calcium chloride 300 mM
[11] = system: semimembranosus beef muscles; test: R-value, pre-rigor injection of whole muscle; conditions: for R-value, 0 h: 0 h (before injection), ratio of hypoxantine to nucleotides; for R-value, 72 h: 200 mM, calcium chloride 300 mM
[12] = system: semimembranosus beef muscles; test: NAD and NADH content, pre-rigor injection of whole muscle; conditions: for NAD, 0 h / NADH, Oh: 0 h (before injection); for NAD, 24 h / NADH, 24 h / NAD, 72 h / NADH, 72 h: 200 mM, calcium chloride 300 mM
[13] = system: semimembranosus beef muscles; test: Sarcomere length, pre-rigor injection of whole muscle; conditions: 72 hours post-mortem, 200 mM, calcium chloride 300 mM
[14] = system: triceps brachii beef muscles; test: Objective color, pre-rigor injection of whole muscle; conditions: for L*value, 0 h / a*value, 0 h / b*value, 0 h: 0 h (before injection); for L*value, 0 h / L*value, 24 h / L*value, 72 h: lightness; for a*value, 0 h / a*value, 24 h: redness; for b*value, 0 h / b*value, 24 h / b*value, 72 h: yellowness; for L*value, 24 h / a*value, 24 h / b*value, 24 h / L*value, 72 h / b*value, 72 h: 200 mM, calcium chloride 300 mM
[15] = system: triceps brachii beef muscles; test: Water holding capacity, pre-rigor injection of whole muscle; conditions: 200 mM, calcium chloride 300 mM

[Ca+2].[Cl-].[Cl-] [Calcium chloride, calcium chloride, reference compound]
NAD, 0 h [1]: .425 μmol/g tissue
NADH, 0 h [1]: .080 μmol/g tissue
NAD, 24 h [1]: .193^b μmol/g tissue
NADH, 24 h [1]: .062 μmol/g tissue
NAD, 72 h [1]: .117^a μmol/g tissue
NADH, 72 h [1]: .052 μmol/g tissue
Redox potential, 24 h [2]: 127.10 mV
Redox potential, 72 h [2]: 134.35 mV
Redox potential, 0 h [3]: 122.45 mV
Redox potential, 24 h [3]: 131.00 mV
Redox potential, 72 h [3]: 133.47 mV
NAD, 0 h [4]: .366 μmol/g tissue
NADH, 0 h [4]: .074 μmol/g tissue
NAD, 24 h [4]: .152^ab μmol/g tissue
NADH, 24 h [4]: .066 μmol/g tissue
NAD, 72 h [4]: .089^ab μmol/g tissue
NADH, 72 h [4]: .041^ab μmol/g tissue
R-value, 24 h [5]: 1.31
R-value, 72 h [5]: 1.44
L*value, 0 h [6]: 20.07
a*value, 0 h [6]: 18.44
b*value, 0 h [6]: 3.27
L*value, 24 h [6]: 28.41
a*value, 24 h [6]: 24.80^bc
b*value, 24 h [6]: 6.60^b
L*value, 72 h [6]: 30.86
a*value, 72 h [6]: 24.27
b*value, 72 h [6]: 6.37
Sarcomere length [7]: 1.31^b μm
WHC, 72 h (Water Holding Capacity) [8]: 41.71%
Redox potential, 0 h [9]: 120.10 mV
Redox potential, 24 h [9]: 129.97^a mV
Redox potential, 72 h [9]: 127.92^c mV
R-value, 0 h [10]: .85
R-value, 24 h [10]: 1.26
R-value, 72 h [10]: 1.43
R-value, 0 h [11]: .83
R-value, 72 h [11]: 1.45
NAD, 0 h [12]: .525 μmol/g tissue
NADH, Oh [12]: .126 μmol/g tissue
NAD, 24 h [12]: .328^ab μmol/g tissue
NADH, 24 h [12]: .073^a μmol/g tissue
NAD, 72 h [12]: .118^bc μmol/g tissue
NADH, 72 h [12]: .054^ab μmol/g tissue
Sarcomere length [13]: 1.48^c μm
Sarcomere length ([13]; listed as CaCl2): 1.48 μm
L*value, 0 h [14]: 21.61
a*value, 0 h [14]: 18.08
b*value, 0 h [14]: 3.45
L*value, 24 h [14]: 28.34
a*value, 24 h [14]: 27.23
b*value, 24 h [14]: 7.10
L*value, 72 h [14]: 32.14
b*value, 72 h [14]: 6.22
WHC, 72 h (Water Holding Capacity) [15]: 40.09%

CC(=O)[O-].[Na+] [Sodium acetate, sodium acetate]
NAD, 0 h [1]: .442 μmol/g tissue
NADH, 0 h [1]: .087 μmol/g tissue
NAD, 24 h [1]: .258^a μmol/g tissue
NADH, 24 h [1]: .076 μmol/g tissue
NAD, 72 h [1]: .141^a μmol/g tissue
NADH, 72 h [1]: .059 μmol/g tissue
Redox potential, 24 h [2]: 129.13 mV
Redox potential, 72 h [2]: 139.27 mV
Redox potential, 0 h [3]: 121.53 mV
Redox potential, 24 h [3]: 130.37 mV
Redox potential, 72 h [3]: 134.90 mV
NAD, 0 h [4]: .355 μmol/g tissue
NADH, 0 h [4]: .073 μmol/g tissue
NAD, 24 h [4]: .212^a μmol/g tissue
NADH, 24 h [4]: .064 μmol/g tissue
NAD, 72 h [4]: .113^a μmol/g tissue
NADH, 72 h [4]: .058^c μmol/g tissue
R-value, 24 h [5]: 1.31
R-value, 72 h [5]: 1.40
L*value, 0 h [6]: 20.75
a*value, 0 h [6]: 15.69
b*value, 0 h [6]: 2.69
L*value, 24 h [6]: 31.37
a*value, 24 h [6]: 22.65^ab
b*value, 24 h [6]: 6.14^ab
L*value, 72 h [6]: 33.68
a*value, 72 h [6]: 21.67
b*value, 72 h [6]: 6.16
Sarcomere length [7]: 1.53^b μm
WHC, 72 h (Water Holding Capacity) [8]: 39.35%
Redox potential, 0 h [9]: 122.35 mV
Redox potential, 24 h [9]: 134.20^a mV
Redox potential, 72 h [9]: 142.75^a mV
R-value, 0 h [10]: .84
R-value, 24 h [10]: 1.30
R-value, 72 h [10]: 1.41
R-value, 0 h [11]: .82
R-value, 72 h [11]: 1.39
NAD, 0 h [12]: .582 μmol/g tissue
NADH, Oh [12]: .124 μmol/g tissue
NAD, 24 h [12]: .410^a μmol/g tissue
NADH, 24 h [12]: .090^b μmol/g tissue
NAD, 72 h [12]: .192^a μmol/g tissue
NADH, 72 h [12]: .079^c μmol/g tissue
Sarcomere length [13]: 1.74^ab μm
L*value, 0 h [14]: 17.72
a*value, 0 h [14]: 15.70
b*value, 0 h [14]: 2.88
L*value, 24 h [14]: 28.37
a*value, 24 h [14]: 25.08
b*value, 24 h [14]: 6.55
L*value, 72 h [14]: 31.36
b*value, 72 h [14]: 6.38
WHC, 72 h (Water Holding Capacity) [15]: 36.36%
